PubChem BioAssay AID1224826, NIAID – 2016
Here is one part, drawn at random, of about 17,000 deposited reagents. Over the whole deposit, about 1,110 (6.6%) are marked active. 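Active means lowered or raised reporter signal; replicate intensities are raw and not normalised per plate.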 The numbers tell different reagents against one gene apart. Further read-outs or replicates are left out here.

Assay: 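Regulators of Tlr4 signalling leading to Tnf-alpha expression in macrophages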 (primary screen)
System: RAW264.7 G9 macrophages from mouse bearing reporters for p65 (GFP) and the Tnf promoter (mCherry)
Reagent: siRNA pool against mouse genes, 100 nM
Timing: 16 h of LPS stimulation, after 2 days of siRNA transfection
Conditions: bacterial lipopolysaccharide (Salmonella minnesota R595), 10 ng/ml
Measurement: 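Imaged Tnf reporter mCherry in nuclei, minus background, normalised per plate to the median and expressed as robust z-scores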
Reading the numbers: Tnf reporter robust z-score: higher = stronger Tnf promoter reporter signal after LPS
Hit rule: 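a well counts as active at a score of -1.3 or below (Tlr4 knock-down control median) or above 3 (raised signal); controls and wells holding fewer than 50 cells are excluded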
Meaning of the calls: active = Tnf reporter clearly lowered or raised; inactive = no clear change in Tnf reporter

Or51ah3 — Tnf reporter robust z-score = 2.55; fewer than 50 cells in well = enough cells in well; call = inactive
Rbm4 — Tnf reporter robust z-score = 1.99; fewer than 50 cells in well = enough cells in well; call = inactive
Spg7 #1 — Tnf reporter robust z-score = 0.9; fewer than 50 cells in well = enough cells in well; call = inactive
Spg7 #2 — Tnf reporter robust z-score = 0.26; fewer than 50 cells in well = enough cells in well; call = inactive
Scml4 — Tnf reporter robust z-score = 0.27; fewer than 50 cells in well = enough cells in well; call = inactive
Phka1 — Tnf reporter robust z-score = 0.86; fewer than 50 cells in well = enough cells in well; call = inactive
Pphln1-ps1 — Tnf reporter robust z-score = 0.77; fewer than 50 cells in well = enough cells in well; call = inactive

An excerpt from above, limited to “Tnf reporter robust z-score”.
Spg7 #2	0.26
Scml4	0.27
Phka1	0.86

The results go on.
Hspbp1 — Tnf reporter robust z-score = -0.35; fewer than 50 cells in well = enough cells in well; call = inactive
Mthfr — Tnf reporter robust z-score = -1.08; fewer than 50 cells in well = enough cells in well; call = inactive
Mycl — Tnf reporter robust z-score = 2.18; fewer than 50 cells in well = enough cells in well; call = inactive
Tcp11 — fewer than 50 cells in well = fewer than 50 cells per well; well left out of calls; call = inactive
Stx4a — Tnf reporter robust z-score = 0.08; fewer than 50 cells in well = enough cells in well; call = inactive
Plin4 — Tnf reporter robust z-score = -0.59; fewer than 50 cells in well = enough cells in well; call = inactive
Plaat1 — Tnf reporter robust z-score = 0.29; fewer than 50 cells in well = enough cells in well; call = inactive
Fmo3 — Tnf reporter robust z-score = 0.35; fewer than 50 cells in well = enough cells in well; call = inactive
Calm4 — Tnf reporter robust z-score = -1.82; fewer than 50 cells in well = enough cells in well; call = active
Zmym5 — Tnf reporter robust z-score = -0.38; fewer than 50 cells in well = enough cells in well; call = inactive
Mog — Tnf reporter robust z-score = 1.11; fewer than 50 cells in well = enough cells in well; call = inactive
Ppp1r3c — Tnf reporter robust z-score = 2.3; fewer than 50 cells in well = enough cells in well; call = inactive
P4ha1 — Tnf reporter robust z-score = -0.84; fewer than 50 cells in well = enough cells in well; call = inactive
Pax9 — Tnf reporter robust z-score = -0.1; fewer than 50 cells in well = enough cells in well; call = inactive
